# Data reported in PubChem BioAssay AID504467 (National Center for Advancing Translational Sciences (NCATS), 2011).
# Screen size: about 330,000 compounds; about 7,700 (2.3%) were called active. The inconclusive results got no clear call from the source; some entries with a clear call stand among them for comparison. Calls follow the shape of the dose curve; as a rule, active = well fitted inhibition curve with a large enough effect; inconclusive = small, poorly fitted or top-dose-only effect, or effect the other way; inactive = flat fitted curve, though single readings scatter. A potency beside an inconclusive call is a rough fit, not a confirmed value.
# Assay: qHTS screen for small molecules that inhibit ELG1-dependent DNA repair in human embryonic kidney (HEK293T) cells expressing luciferase-tagged ELG1; also: nearly all actives have a fitted effect of over 55% in size
# Settings: HEK293T ELG1-luciferase reporter, luminescence, 16 h, DNA damage induced by 5-fluorouridine; series mostly up to 46.1 µM
# How it was run: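 Cells (2,000 per well) received 5-fluorouridine plus test compound or DMSO and were incubated 16 hr at 37 °C, 5% CO2. Luciferase activity was read by luminescence 30 min after ONE-Glo addition; signal suppression marked inhibition of damage-induced ELG1 function.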
# Potency is read from the fitted curve at half-maximal effect.
row,Compound,Potency
1,CCCOc1ccc(N2C(=O)CC(N(CCCO)C(=O)CC)C2=O)cc1 (stereo unspecified),"inconclusive: 29.1 µM [activator, single point]"
2,O=C(CCNC(=O)c1ccccc1)Nc1ccc(Cl)c(S(=O)(=O)N2CCCCC2)c1,active: 16.4 µM
3,O=C(COC(=O)c1ccccc1NS(=O)(=O)c1ccc(Cl)cc1)NCc1ccccc1,"inconclusive: 18.4 µM [inhibitor, single point]"
4,C(=N\NC1=Nc2cccc3cccc1c23)/c1cccnc1,"inconclusive: 3.66 µM [activator, partial curve]"
5,COc1ccc(C(=O)Nc2ccnn2C2CCN(Cc3ccn[nH]3)CC2)cc1,"inconclusive: 20.6 µM [activator, single point]"
6,Cc1ccc(NC(=O)c2ccc(OCC3CCCO3)cc2)nc1 (stereo unspecified),"inconclusive: 1.64 µM [activator, full curve]"
7,COc1ccccc1CC(=O)c1ccc(OCc2ccccc2)cc1,"inconclusive: 25.1 µM [activator, single point]"
8,CC(Sc1nnc(Nc2ccccc2)s1)C(=O)Nc1nc(-c2ccccc2)cs1 (stereo unspecified),inactive
9,Nc1c2c(nc3ccc(Br)cc13)N(C1CCCCC1)CC2,inactive
10,CC(=O)N1CCN(S(=O)(=O)c2ccc(S(=O)(=O)NC3CCCCC3)cc2)CC1,inactive
11,CN(Cc1ccon1)Cc1cn(C)nc1-c1cccc(Cl)c1,"inconclusive: 20.6 µM [activator, partial curve]"
12,CCCn1c2ccccc2c2nnc(SC(CC)C(=O)Nc3sc4c(c3C#N)CCCC4)nc21 (stereo unspecified),"inconclusive: 6.51 µM [inhibitor, single point]"
13,Cc1ccc2[nH]c3c(N4CCc5ccccc5C4)ncnc3c2c1,"inconclusive: 25.9 µM [inhibitor, single point]"
14,Cc1cccc(NC(=S)N2CCC(N(C)CC3CCCO3)CC2)c1 (stereo unspecified),inactive
15,O=S1(=O)NC(=NCCc2ccccn2)c2ccccc21,inactive
16,N#CCc1ccc(OC(=O)Nc2ccccc2)cc1,"inconclusive: 14.6 µM [activator, partial curve, poor fit]"
17,O=C1CC2CCCN2C=C1I (stereo unspecified),inactive
18,O=C(N/N=C/c1coc2ccc(Cl)cc2c1=O)c1ccc(O)cc1,"inconclusive: 23.1 µM [inhibitor, partial curve]"
19,CC(C)(C)c1ccc(Oc2ccc(NC(=O)c3cccs3)cn2)cc1,active: 6.51 µM
20,O=C(COC(=O)c1ccc(Cl)nc1)NNC(=O)c1ccc(Cl)cc1,"inconclusive: 18.3 µM [activator, single point]"
21,Cc1ccc2nc(C)c(CN3CCN(c4ccc([N+](=O)[O-])cc4Cl)CC3)n2c1,active: 2.31 µM
22,COc1cc(OC)cc(C(=O)N/N=C/c2ccc(OC)c(COc3ccc4ccccc4c3)c2)c1,"inconclusive: 8.2 µM [inhibitor, partial curve]"
23,COCCCN(C(=S)NC(=O)C12CC3CC(CC(C3)C1)C2)c1c(N)n(Cc2ccccc2)c(=O)[nH]c1=O,inactive
24,Cc1nc2ccc(NC(=O)c3oc4ccc(F)cc4c3C)cc2s1,"inconclusive: 25.9 µM [activator, single point]"

# Among those listed so far, 2 have an aryl thioether with sulfur outside any ring:
row,Compound,Potency
8,CC(Sc1nnc(Nc2ccccc2)s1)C(=O)Nc1nc(-c2ccccc2)cs1 (stereo unspecified),inactive
12,CCCn1c2ccccc2c2nnc(SC(CC)C(=O)Nc3sc4c(c3C#N)CCCC4)nc21 (stereo unspecified),"inconclusive: 6.51 µM [inhibitor, single point]"

# The list continues.

row,Compound,Potency
1,CCc1cc2c(=O)c(-c3cnn(-c4ccccc4)c3)coc2c(CN2CCOCC2)c1O,"inconclusive: 29.1 µM [inhibitor, single point]"
2,Cc1nn(CC(=O)NCCc2ccc(Cl)cc2)c(=O)c2cccn12,inactive
3,COc1ccc(C(=O)N2CCCC(c3ccccc3)C2)cc1 (stereo unspecified),inactive
4,O=C(NCCc1ccc(F)cc1)NC12CC3CC(CC(C3)C1)C2,"inconclusive: 6.51 µM [activator, partial curve]"
5,COc1ccccc1-c1noc(CCC(=O)N2CCN(c3cc(C)ccc3C)CC2)n1,"inconclusive: 29.1 µM [inhibitor, single point]"
6,Cc1cc(-c2ccccc2)nc(N/N=C/c2ccccc2F)n1,"inconclusive: 3.66 µM [activator, single point]"
7,Cn1c(C(=O)NCCC2=CCCCC2)cc2c(=O)n3ccccc3nc21,"inconclusive: 3.66 µM [activator, full curve]"
8,CCCn1nc(NC(=O)CC)c2cc3cccc(C)c3nc21,"inconclusive: 9.2 µM [inhibitor, partial curve, poor fit]"
9,Cc1ccc(S(=O)(=O)CC(=O)N2CC(C)OC(C)C2)cc1 (stereo unspecified),inactive
10,COc1cc(OC)c2c(C)cc(=O)oc2c1C(CCN1CCN(c2ccccc2)CC1)c1ccc2c(c1)OCO2 (stereo unspecified),"inconclusive: 29.1 µM [inhibitor, single point]"
11,CC1CN(C(=O)c2scc3c2OCCO3)CC(C)O1 (stereo unspecified),inactive
12,COc1ccccc1N(C)S(=O)(=O)c1ccc(C(=O)NCC(C)C)cc1,"inconclusive: 18.4 µM [inhibitor, single point]"
13,O=C1S/C(=C\c2ccc(O)c([N+](=O)[O-])c2)C(=O)N1c1ccccc1Cl,"inconclusive: 20.6 µM [inhibitor, single point]"
14,COc1ccc(Nc2ccc(Nc3ccc(OC)cc3)nn2)cc1,"inconclusive: 16.4 µM [activator, partial curve, poor fit]"
15,CSc1nc(N(C)NC(=O)c2ccccc2)c2ccccc2n1,inactive
16,COc1ccc(N2C(=O)CC(Sc3nc(C)cc(C)c3C#N)C2=O)cc1 (stereo unspecified),"inconclusive: 9.2 µM [activator, partial curve, poor fit]"
17,Cc1nc(Cl)sc1C(=O)Nc1cccc(Cl)c1C,inactive
18,COc1ccc(CCn2c(C)cc(C(=O)CN3C(=O)C(=O)N(C4CCCC4)C3=O)c2C)cc1OC,"inconclusive: 18.3 µM [inhibitor, single point]"
19,O=C(Nc1nc2cc3c(cc2s1)OCO3)C1=COCCO1,"inconclusive: 0.231 µM [activator, partial curve]"
20,COc1ccc(CCNC(=O)C2CC(c3cccc([N+](=O)[O-])c3)=NO2)cc1 (stereo unspecified),"inconclusive: 23.1 µM [activator, partial curve]"
21,COc1ccc(-c2noc(-c3ccc4c(c3)OCO4)n2)cc1,"inconclusive: 2.59 µM [activator, full curve]"
22,CC(C)[C@H](NC(=O)OCc1ccccc1)C(=O)N[C@@H](Cc1c[nH]c2ccccc12)C(=O)O,inactive
23,COc1ccc(C2C(C(=O)c3ccco3)=C(O)C(=O)N2CC2CCCO2)c(OC)c1 (stereo unspecified),"inconclusive: 29.1 µM [activator, partial curve, poor fit]"
24,COc1ccc(C(=O)N/N=C/c2ccc(N3CCOCC3)s2)cc1OC,inactive

row,Compound,Potency
1,CCn1c(SCC(=O)N2CCc3ccccc3C2)nc2sc(C)c(C)c2c1=O,inactive
2,Cn1c2c(c(=O)n(C)c1=O)C1(C(=O)Nc3ccccc31)C(C#N)=C(N)O2 (stereo unspecified),inactive
3,CS(=O)(=O)N1CCc2cc(S(=O)(=O)Nc3ccc4oc5c(c4c3)CCCC5)ccc21,"inconclusive: 6.51 µM [inhibitor, single point]"
4,Cc1cccc(NC(=O)CN2CCc3cc4c(cc3C2C)OCCCO4)c1 (stereo unspecified),active: 20.6 µM
5,O=C(Nc1ccc(Cl)cc1)c1ccc2c(c1)OCO2,"inconclusive: 1.84 µM [activator, partial curve]"
6,CCN1CCc2c(OCC(=O)Nc3cccc(C)c3)cccc2C1=O,"inconclusive: 32.6 µM [inhibitor, partial curve, poor fit]"
7,CCCCN(C(=O)CSc1nn(-c2ccc(F)cc2)c(=S)s1)c1c(N)n(CCCC)c(=O)[nH]c1=O,inactive
8,COc1ccc2c(c1)c(C(=O)N/N=C/c1ccc(Cl)cc1)c(C)n2C,"inconclusive: 29.1 µM [inhibitor, single point]"
9,Cc1ccccc1N(CC(=O)NCc1ccc2c(c1)OCO2)C(=O)C1CSC(=O)C1 (stereo unspecified),inactive
10,COc1ccc(C(=O)Nc2ccc(NC(=O)c3cccs3)cc2)cc1Cl,"inconclusive: 20.6 µM [activator, partial curve]"
11,Cc1c(C(=O)O)sc(S(=O)(=O)N2CCN(C(=O)Cc3ccccc3Cl)CC2)c1C(=O)O,inactive
12,COCCNC(=O)CSc1nc2cc(OC)c(OC)cc2c(=O)n1CCC1=CCCCC1,"inconclusive: 18.4 µM [inhibitor, single point]"
13,CCN(CC)S(=O)(=O)c1ccc2c(c1)nc(SCC(=O)NC1CC1)n2-c1ccccc1OC,"inconclusive: 14.6 µM [inhibitor, partial curve, poor fit]"
14,COc1ccc(S(=O)(=O)N2CCCCC2)cc1NC(=O)c1cncc(Br)c1,inactive
15,COc1cccc(CN2CCN(Cc3nc(C(C)C)cs3)CC2CCO)c1 (stereo unspecified),"inconclusive: 16.4 µM [inhibitor, partial curve]"
16,COc1ccc(OC)c(/C=C/C(=O)OCC(=O)N2C(C)CCCC2C)c1 (stereo unspecified),active: 20.6 µM
17,CCOC(=O)CSc1nc(N)c(C#N)cc1C#N,"inconclusive: 20.6 µM [activator, partial curve]"
18,Cc1ccc(O)c(C(=O)c2cc(C#N)c3nc4ccccc4n3c2)c1,"inconclusive: 3.26 µM [inhibitor, single point]"
19,COCC(C)OC(=O)c1c(N)n(-c2ccc(OC)c(OC)c2)c2nc3ccccc3nc12 (stereo unspecified),inactive
20,CN1C(C(=O)NCc2cccc(Br)c2)CC2Cn3c(nc4cc5ccccc5cc43)C21 (stereo unspecified),inactive
21,Cc1nn(-c2ccccc2)c(C)c1/C=N/NC(=O)CSc1nnc(SCc2ccc(Cl)cc2)s1,"inconclusive: 29.1 µM [inhibitor, single point]"
22,CCCCn1c(N)c(N(CCOC)C(=O)CSCc2cccc(C)c2)c(=O)[nH]c1=O,inactive
23,COc1ccccc1C1C=C(c2ccccc2)Nc2nnnn21 (stereo unspecified),inactive

# Three compounds from above, sorted by molecular weight, ascending:
row,Compound,Potency
19,CC(C)(C)c1ccc(Oc2ccc(NC(=O)c3cccs3)cn2)cc1,active: 6.51 µM
20,O=C(COC(=O)c1ccc(Cl)nc1)NNC(=O)c1ccc(Cl)cc1,"inconclusive: 18.3 µM [activator, single point]"
10,COc1cc(OC)c2c(C)cc(=O)oc2c1C(CCN1CCN(c2ccccc2)CC1)c1ccc2c(c1)OCO2 (stereo unspecified),"inconclusive: 29.1 µM [inhibitor, single point]"
